Laboratory results: PubChem BioAssay AID686937 (Drosophila RNAi Screening Center, 2013)
The deposit covers about 23,000 reagents; shown is an unselected part of those with a known target gene and a result. 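Reduced-secretion tags in replicate 1 do not always agree with the z-scores; no criterion for assigning the tags was given.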 A plus sign joins genes that one reagent is predicted to hit. Not all columns of the deposit are shown. No sequences are given here. Not stated in the record: the amount of reagent.

Test: 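Genes in the fly needed for secretion of protein constitutively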 (primary screen)
System: Drosophila S2 cells expressing secreted horseradish peroxidase
Knock-down reagent: long dsRNA against Drosophila genes
Duration: about 5.5 days (5 days dsRNA, then 12 h reporter induction)
Challenge: reporter expression induced after 5 days of dsRNA, read 12 h later; inducer not stated
Detection: 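Chemiluminescent measurement of peroxidase in the medium 12 h after reporter induction, following 5 days of dsRNA, given as a z-score per plate; higher means more secretion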
Reading the numbers: z-score: higher = more reporter secreted into medium

RpL41 [DRSC22958]: z-score, replicate 1 = 0.1
ssp [DRSC10252]: z-score, replicate 1 = -0.14
CG42331 [DRSC14633]: z-score, replicate 1 = -0.01
CG42331 [DRSC16126]: z-score, replicate 1 = 0.39
Tsp68C [DRSC09295]: z-score, replicate 1 = 0.01
CG6012 [DRSC02921]: z-score, replicate 1 = 0.43
Mst98Ca [DRSC16749]: z-score, replicate 1 = 0.01
CG14589 [DRSC04866]: z-score, replicate 1 = 0.04
Nnk [DRSC15274]: z-score, replicate 1 = 0.18
CG32533 [DRSC19443]: z-score, replicate 1 = 0.12
CG32533 [DRSC19553]: z-score, replicate 1 = 0.31
Rga + asRNA:ASTR [DRSC12364]: z-score, replicate 1 = -0.01
CG32240 [DRSC08093]: z-score, replicate 1 = -0.14
Usp20-33 [DRSC07196]: z-score, replicate 1 = 0.34
Obp49a [DRSC22562]: z-score, replicate 1 = -0.16
Adk1 [DRSC15514]: z-score, replicate 1 = 0.32
CG42792 [DRSC01515]: z-score, replicate 1 = 0.11
mahe [DRSC17755]: z-score, replicate 1 = 0.21
CG34305 [DRSC11995]: z-score, replicate 1 = -0.21
CG9451 [DRSC11074]: z-score, replicate 1 = 0.16
CG32812 [DRSC18478]: z-score, replicate 1 = -0.9
CG17475 [DRSC15238]: z-score, replicate 1 = 0.23
CG7582 [DRSC16261]: z-score, replicate 1 = 0.4
bbx + waw [DRSC20575]: z-score, replicate 1 = 0.43
bbx + waw [DRSC20589]: z-score, replicate 1 = 0.15
Cyp6a20 [DRSC07380]: z-score, replicate 1 = 0.11
CG31804 [DRSC22728]: z-score, replicate 1 = -0.01
Mys45A [DRSC07067]: z-score, replicate 1 = -0.6
fry [DRSC08993]: z-score, replicate 1 = -0.05
fry [DRSC10172]: z-score, replicate 1 = 0.29
fry [DRSC10709]: z-score, replicate 1 = 0.37
fry [DRSC10712]: z-score, replicate 1 = 0.67
CG17744 [DRSC10286]: z-score, replicate 1 = 0.33
CG10274 [DRSC09716]: z-score, replicate 1 = -0.22
rost [DRSC03603]: z-score, replicate 1 = 0.33
Cyp6t3 [DRSC07388]: z-score, replicate 1 = 0.06
CG34297 [DRSC12410]: z-score, replicate 1 = -0.04
CG43673 + CG43672 [DRSC19452]: z-score, replicate 1 = 0.31
CG43673 + CG43672 [DRSC20108]: z-score, replicate 1 = 0.09
Gr66a [DRSC10783]: z-score, replicate 1 = 0.42
